Binding signal data for 42 sequences are collected here from PMC7819943, “Rice protein-binding microarrays: a tool to detect cis-acting elements near promoter regions in rice”.

Sequences of proteins named here, by UniProt entry; tags and fusion partners are left off.
UniProt Q0JBA9, entry or part of it: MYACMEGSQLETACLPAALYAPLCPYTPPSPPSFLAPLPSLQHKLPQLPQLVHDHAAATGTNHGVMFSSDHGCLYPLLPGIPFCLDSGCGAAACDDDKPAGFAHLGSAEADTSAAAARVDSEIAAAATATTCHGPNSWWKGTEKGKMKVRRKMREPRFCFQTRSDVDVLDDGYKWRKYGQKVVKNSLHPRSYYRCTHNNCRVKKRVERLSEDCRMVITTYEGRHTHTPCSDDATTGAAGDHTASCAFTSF

The other results are listed elsewhere or left out.

In this test the target is OsWRKY34 (Oryza sativa, UniProt Q0JBA9 1-250). In words: protein-binding microarray (RPBM); PBS, 2% BSA, 51.3 ng/ul salmon testes DNA, 50 uM zinc acetate, 200 nM TF, 25 C, 1 h; high values mean tight binding. The settings on record: protein: recombinant; tags: N-terminal polyhistidine and DsRed monomer fusion (pET32a); label: CyDye5-dUTP incorporated in the synthesized complementary strand; 3' TTTTT single-stranded linker to array surface; dsDNA, one strand shown. The gist of the method:
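The binding signal is fluorescence intensity per array feature (arbitrary units). Readings came from an Axon 4000B scanner after a washed, 2% BSA-blocked, double-stranded custom Agilent array had been incubated for 1 h at 25 °C with 200 nM protein and 50 µM zinc acetate. The protein was a Ni–NTA-purified transcription factor fused N-terminally to polyhistidine and DsRed, expressed in E. coli BL21-CodonPlus.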
In the case of “ATACGGCCGGCTTTTCCCTTGGGTGCACACATCGATCCCTCGGAGTCACCTAGTGCAG”, the binding signal was 8960 fluorescence intensity (a.u.). For “CCGGTCTGACTGCTGCACGAGCAACCCGACTCGATGGATCCGGAGTCACCTAGTGCAG”, the binding signal was 8740 fluorescence intensity (a.u.). Consider “TTCGTCTTCTCATGCTTGTACTGCCACTTACCATACCATACGGAGTCACCTAGTGCAG”, for which the binding signal is 14300 fluorescence intensity (a.u.). As for “TTGGAATCGCCTCACTCACGAACTCCTACGTACGCTACACCGGAGTCACCTAGTGCAG”, the binding signal is 8910 fluorescence intensity (a.u.). As for “AGTTGGTTTTGGCTGAGTTTAGTTTCAAACTTTTTCGTCACGGAGTCACCTAGTGCAG”, the binding signal is 10600 fluorescence intensity (a.u.).

For the sequence “GTGTGCTTTCCTGCTGCGTGTGGTGCTATTATTGCTAGTCCGGAGTCACCTAGTGCAG”, the binding signal is 9840 fluorescence intensity (a.u.).

Regarding “TTAACATCAATGCAACACACATAGAGATCACAGTCACACACGGAGTCACCTAGTGCAG”, the binding signal is 8110 fluorescence intensity (a.u.). Turning to “TTTTGGATCCAAGCTGGTTGATTGATTGCTCTTCGTCTCCCGGAGTCACCTAGTGCAG”, the binding signal was 10400 fluorescence intensity (a.u.). In the case of “GTCGTCGTTCTTATTACAACTCCATTTGATAACTCCATACCGGAGTCACCTAGTGCAG”, the binding signal is 8160 fluorescence intensity (a.u.). With “CGCCTGTTTCGGTTACTCTCTTTGTAATCTGTTCTCATCACGGAGTCACCTAGTGCAG”, the binding signal was 9680 fluorescence intensity (a.u.). Turning to “TCCACGCCGTCCATTCGCCATCGCCGTCGGGTATATAAACCGGAGTCACCTAGTGCAG”, the binding signal was 9810 fluorescence intensity (a.u.). In the case of “GAATTTTTTTTTATCATCTTTGACGGGCACACAAATTTTACGGAGTCACCTAGTGCAG”, the binding signal was 8140 fluorescence intensity (a.u.). In the case of “ATATTCCCTCCGTTTTGAAATGTTTGACGCCGTTGACTTTCGGAGTCACCTAGTGCAG”, the binding signal is 17000 fluorescence intensity (a.u.). For “GTGGGGAGGGGAGGTGGGTCGCCGAAAGCTTGGCTGAGATCGGAGTCACCTAGTGCAG”, the binding signal was 12400 fluorescence intensity (a.u.). As for “GTGGGTATGGTTGACTTGACGGACGTACTACTCCATACTACGGAGTCACCTAGTGCAG”, the binding signal was 8190 fluorescence intensity (a.u.). As for “GTTGAGGGAGGCGTTTTACCTGGTTTTGCGGTTGAGGGATCGGAGTCACCTAGTGCAG”, the binding signal is 8490 fluorescence intensity (a.u.). Regarding “CCCTATTCTTTGGACAGTGACAATTATATGTCTATTTTTACGGAGTCACCTAGTGCAG”, the binding signal was 8210 fluorescence intensity (a.u.). On to “CTCCAGCGCTCCTACTCCATCTCCGGCCTCCGACTCCCAGCGGAGTCACCTAGTGCAG”, for which the binding signal was 8040 fluorescence intensity (a.u.).

On to “GTGGTAGAAGCTATATTGTCACTGTGGTCGTCATTGTAGTCGGAGTCACCTAGTGCAG”, for which the binding signal was 8690 fluorescence intensity (a.u.). For “GACACGTCACTACCTCACCCAAACGGACCCAATCCTCACCCGGAGTCACCTAGTGCAG” the value was 9550 fluorescence intensity (a.u.). On to “ATCCTGAGCGTCTCTTACTCTTCTCACGAGAACCCAAACGCGGAGTCACCTAGTGCAG”, for which the binding signal is 8740 fluorescence intensity (a.u.). As to “ACCTGACCGTCTCAAGCCAACCCACGAAGTTCCAAATTTTCGGAGTCACCTAGTGCAG”, the binding signal is 8390 fluorescence intensity (a.u.). Regarding “ACCCGATCCACTCTCAGCCAGCGCCACCGCCACCGGATCCCGGAGTCACCTAGTGCAG”, the binding signal is 9560 fluorescence intensity (a.u.). As for “AAGGAAGGGGATGGGCGGCGGAGGCGGGGAGTAGGACGGCCGGAGTCACCTAGTGCAG”, the figure is 8160 fluorescence intensity (a.u.). For “GGTAACTTGCACTGTGGAGTATGTGGCTAATGGGGTTCTTCGGAGTCACCTAGTGCAG”, the binding signal is 8830 fluorescence intensity (a.u.).

Turning to “TCAACCTCACGCTCACATTCTTGCTAGCTCACTCCTCTCCCGGAGTCACCTAGTGCAG”, the binding signal is 10300 fluorescence intensity (a.u.).

Turning to “TATTTGTTTGGCTATCATCTTAGGAGTACATATATGCCAACGGAGTCACCTAGTGCAG”, the binding signal was 9560 fluorescence intensity (a.u.). Regarding “GCCTGCTCTGTTTCTCTGGTCTCGGCCCACAAACGATTCGCGGAGTCACCTAGTGCAG”, the binding signal was 9330 fluorescence intensity (a.u.). As for “CTCGCCGCGTGCTCCTTTACTGCTCTCTGCTCGCGCAGGACGGAGTCACCTAGTGCAG”, the binding signal was 9230 fluorescence intensity (a.u.). For “CATATATTATAGAAGTTACTTTCTTTTTGTTATAAGTTACCGGAGTCACCTAGTGCAG” the value was 8280 fluorescence intensity (a.u.); for “ACGCGCGGCCTAGTTGTGTGTGGGTGTGTGAGGTGAGGGGCGGAGTCACCTAGTGCAG”, 11000 fluorescence intensity (a.u.); for “GCACAGTTGATCCAGCAGGTTTATTTTATTGATTTCTTTTCGGAGTCACCTAGTGCAG”, 10600 fluorescence intensity (a.u.). Regarding “CGGCTATTGTTTTTGCTTCAGTGGGTGGGATCCAGGAAGACGGAGTCACCTAGTGCAG”, the binding signal was 13800 fluorescence intensity (a.u.). Regarding “GCCCAATATCATCTGGCCCAATAATAGCCCACACAACCCTCGGAGTCACCTAGTGCAG”, the binding signal is 8550 fluorescence intensity (a.u.). As for “TGCACCTAGGTGTACATGTCATTGTGTGTTTGTGGTTGGTCGGAGTCACCTAGTGCAG”, the figure is 8200 fluorescence intensity (a.u.); as for “GCCTTTCCTTCCGATCTCTCTCCCTCTCTCTCTTCTTCTTCGGAGTCACCTAGTGCAG”, 8100 fluorescence intensity (a.u.). Turning to “TTCATGATAAGTACTCATTCCATATTTTAATTTTAATGTACGGAGTCACCTAGTGCAG”, the binding signal is 8050 fluorescence intensity (a.u.). Take “ATATTTTACGTGCGACTATTTTTTTTACCTTTTTTTTTTCCGGAGTCACCTAGTGCAG”: the binding signal was 10300 fluorescence intensity (a.u.). In the case of “GTTTAACCGTTCATTTTATTTAAAATTTTTTTATAATTACCGGAGTCACCTAGTGCAG”, the binding signal is 8100 fluorescence intensity (a.u.). As for “GGTCATTCCTGTGTTTTGTAATCCTCTGTTTTATACTTATCGGAGTCACCTAGTGCAG”, the binding signal was 10600 fluorescence intensity (a.u.).

As to “ACACAATCCATGTCATTTAAAATTTCAAAGTTGAAATTTACGGAGTCACCTAGTGCAG”, the binding signal is 8380 fluorescence intensity (a.u.).

For “AGTTAGACCGGCACCACCTCGAGCATTATACATAGAATAACGGAGTCACCTAGTGCAG”, the binding signal was 9480 fluorescence intensity (a.u.).
